This note sets out measurements from the supplement of paper PMC11006884.

Chains of the proteins cited; added tags and fusions are not shown. Lines headed by an entry give the natural chain unless they say otherwise; changes in a name come on top.
UniProt Q9UBC1: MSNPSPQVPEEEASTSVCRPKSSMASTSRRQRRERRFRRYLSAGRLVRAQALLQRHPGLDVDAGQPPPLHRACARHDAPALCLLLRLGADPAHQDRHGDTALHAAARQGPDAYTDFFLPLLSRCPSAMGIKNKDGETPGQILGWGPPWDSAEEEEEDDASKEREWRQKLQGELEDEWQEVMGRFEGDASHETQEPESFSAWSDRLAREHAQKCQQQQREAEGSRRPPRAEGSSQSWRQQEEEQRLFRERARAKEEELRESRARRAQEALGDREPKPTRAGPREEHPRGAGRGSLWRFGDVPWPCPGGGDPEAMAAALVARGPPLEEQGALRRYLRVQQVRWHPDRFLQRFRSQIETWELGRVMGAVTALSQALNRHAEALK
UniProt Q9NXC5: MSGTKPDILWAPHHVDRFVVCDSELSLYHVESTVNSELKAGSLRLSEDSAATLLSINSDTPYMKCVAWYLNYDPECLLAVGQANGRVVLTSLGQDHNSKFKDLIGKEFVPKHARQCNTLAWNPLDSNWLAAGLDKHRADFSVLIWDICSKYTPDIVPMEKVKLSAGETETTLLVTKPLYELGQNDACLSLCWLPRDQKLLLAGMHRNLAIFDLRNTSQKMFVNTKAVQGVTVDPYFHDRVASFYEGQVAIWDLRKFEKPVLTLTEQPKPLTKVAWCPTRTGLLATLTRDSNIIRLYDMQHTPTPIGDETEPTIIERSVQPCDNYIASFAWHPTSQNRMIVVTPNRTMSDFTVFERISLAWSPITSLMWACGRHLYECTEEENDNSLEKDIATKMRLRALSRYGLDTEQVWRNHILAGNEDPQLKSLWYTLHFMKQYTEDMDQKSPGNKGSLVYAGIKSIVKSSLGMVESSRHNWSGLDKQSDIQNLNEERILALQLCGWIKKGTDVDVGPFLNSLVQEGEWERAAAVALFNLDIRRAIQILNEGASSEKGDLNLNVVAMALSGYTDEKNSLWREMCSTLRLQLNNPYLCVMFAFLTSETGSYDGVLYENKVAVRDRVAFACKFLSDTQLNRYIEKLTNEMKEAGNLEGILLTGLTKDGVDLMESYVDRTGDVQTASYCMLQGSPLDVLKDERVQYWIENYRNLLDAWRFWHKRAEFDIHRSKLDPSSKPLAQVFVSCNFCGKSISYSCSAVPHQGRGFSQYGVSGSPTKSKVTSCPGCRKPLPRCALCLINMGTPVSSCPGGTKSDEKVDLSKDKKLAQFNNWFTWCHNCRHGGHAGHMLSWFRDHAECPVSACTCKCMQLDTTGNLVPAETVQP
UniProt Q9UHB9: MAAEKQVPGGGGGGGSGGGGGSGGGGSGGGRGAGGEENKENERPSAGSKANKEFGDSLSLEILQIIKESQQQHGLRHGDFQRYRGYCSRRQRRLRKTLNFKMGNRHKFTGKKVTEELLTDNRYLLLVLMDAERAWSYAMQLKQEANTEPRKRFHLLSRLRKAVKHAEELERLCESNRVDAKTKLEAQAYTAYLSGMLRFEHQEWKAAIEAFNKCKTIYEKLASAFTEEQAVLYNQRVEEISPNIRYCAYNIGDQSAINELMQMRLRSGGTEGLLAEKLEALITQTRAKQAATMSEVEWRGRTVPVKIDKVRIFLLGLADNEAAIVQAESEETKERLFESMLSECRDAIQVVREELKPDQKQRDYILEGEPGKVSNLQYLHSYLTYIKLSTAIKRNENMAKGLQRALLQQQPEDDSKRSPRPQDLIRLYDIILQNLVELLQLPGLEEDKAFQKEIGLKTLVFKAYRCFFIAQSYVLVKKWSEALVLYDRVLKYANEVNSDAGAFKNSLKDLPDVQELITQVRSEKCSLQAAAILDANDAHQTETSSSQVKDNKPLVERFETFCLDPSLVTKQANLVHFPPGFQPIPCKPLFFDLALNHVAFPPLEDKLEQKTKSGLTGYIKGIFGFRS
UniProt Q9UER7, whole entry, looked up: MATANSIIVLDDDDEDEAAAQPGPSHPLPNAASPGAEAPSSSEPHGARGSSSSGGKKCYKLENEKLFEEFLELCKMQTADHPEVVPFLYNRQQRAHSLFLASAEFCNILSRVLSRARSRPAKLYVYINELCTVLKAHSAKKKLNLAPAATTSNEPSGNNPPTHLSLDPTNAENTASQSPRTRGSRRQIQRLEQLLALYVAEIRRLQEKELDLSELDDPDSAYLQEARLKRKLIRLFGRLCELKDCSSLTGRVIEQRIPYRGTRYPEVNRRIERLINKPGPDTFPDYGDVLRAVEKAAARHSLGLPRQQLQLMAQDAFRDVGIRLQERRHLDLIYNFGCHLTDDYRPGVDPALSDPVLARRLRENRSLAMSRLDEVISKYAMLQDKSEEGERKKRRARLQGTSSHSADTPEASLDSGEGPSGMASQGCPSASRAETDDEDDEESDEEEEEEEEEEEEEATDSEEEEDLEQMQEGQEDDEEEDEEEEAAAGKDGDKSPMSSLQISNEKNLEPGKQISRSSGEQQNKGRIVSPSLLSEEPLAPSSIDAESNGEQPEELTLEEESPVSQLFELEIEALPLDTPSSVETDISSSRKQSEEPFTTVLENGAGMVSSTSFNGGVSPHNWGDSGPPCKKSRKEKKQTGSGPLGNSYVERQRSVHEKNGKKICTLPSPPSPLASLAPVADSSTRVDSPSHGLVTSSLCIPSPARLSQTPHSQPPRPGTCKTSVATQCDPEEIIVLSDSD
UniProt Q9NZM3: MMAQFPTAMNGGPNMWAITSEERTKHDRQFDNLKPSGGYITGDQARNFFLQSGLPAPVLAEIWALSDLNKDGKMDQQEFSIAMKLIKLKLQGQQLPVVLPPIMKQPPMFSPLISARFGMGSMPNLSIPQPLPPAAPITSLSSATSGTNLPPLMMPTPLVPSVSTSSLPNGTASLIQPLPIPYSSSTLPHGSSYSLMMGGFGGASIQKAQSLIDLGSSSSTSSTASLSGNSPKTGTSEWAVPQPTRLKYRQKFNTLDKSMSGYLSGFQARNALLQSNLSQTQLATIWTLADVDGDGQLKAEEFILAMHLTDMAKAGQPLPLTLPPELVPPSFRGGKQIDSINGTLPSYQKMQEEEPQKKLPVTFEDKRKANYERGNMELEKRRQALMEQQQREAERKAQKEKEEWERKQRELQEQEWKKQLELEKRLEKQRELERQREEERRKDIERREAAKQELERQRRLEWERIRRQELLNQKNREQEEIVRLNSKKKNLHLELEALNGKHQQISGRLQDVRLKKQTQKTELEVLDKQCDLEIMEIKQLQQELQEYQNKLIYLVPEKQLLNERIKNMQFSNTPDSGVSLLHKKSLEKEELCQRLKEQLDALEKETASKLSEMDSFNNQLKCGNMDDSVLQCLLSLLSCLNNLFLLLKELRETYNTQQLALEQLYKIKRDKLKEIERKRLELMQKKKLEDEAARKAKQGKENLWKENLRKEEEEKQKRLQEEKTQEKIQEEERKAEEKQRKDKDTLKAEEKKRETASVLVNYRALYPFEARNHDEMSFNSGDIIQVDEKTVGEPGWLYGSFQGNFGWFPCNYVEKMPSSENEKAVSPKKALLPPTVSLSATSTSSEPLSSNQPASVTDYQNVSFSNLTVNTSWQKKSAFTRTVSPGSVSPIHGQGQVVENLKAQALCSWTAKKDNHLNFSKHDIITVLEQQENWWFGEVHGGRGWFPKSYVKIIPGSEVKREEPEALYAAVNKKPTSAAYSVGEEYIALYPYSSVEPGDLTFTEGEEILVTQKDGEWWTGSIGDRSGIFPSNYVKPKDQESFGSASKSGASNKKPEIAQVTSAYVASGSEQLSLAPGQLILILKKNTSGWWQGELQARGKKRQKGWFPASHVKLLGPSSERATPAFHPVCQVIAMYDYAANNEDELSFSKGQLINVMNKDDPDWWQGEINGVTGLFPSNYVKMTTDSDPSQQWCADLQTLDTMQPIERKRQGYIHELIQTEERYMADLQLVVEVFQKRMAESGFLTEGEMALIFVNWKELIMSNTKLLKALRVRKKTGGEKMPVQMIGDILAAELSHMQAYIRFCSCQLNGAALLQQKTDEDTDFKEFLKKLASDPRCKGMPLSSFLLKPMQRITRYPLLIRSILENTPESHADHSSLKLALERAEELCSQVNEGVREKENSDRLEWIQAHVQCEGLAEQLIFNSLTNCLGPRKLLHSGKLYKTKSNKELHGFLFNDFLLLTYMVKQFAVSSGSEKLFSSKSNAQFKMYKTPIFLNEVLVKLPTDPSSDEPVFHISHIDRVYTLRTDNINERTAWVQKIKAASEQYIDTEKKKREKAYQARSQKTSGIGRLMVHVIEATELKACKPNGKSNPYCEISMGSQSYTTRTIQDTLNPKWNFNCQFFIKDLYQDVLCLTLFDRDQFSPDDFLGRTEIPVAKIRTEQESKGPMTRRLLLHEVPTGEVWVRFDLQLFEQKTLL
UniProt Q9UEY8: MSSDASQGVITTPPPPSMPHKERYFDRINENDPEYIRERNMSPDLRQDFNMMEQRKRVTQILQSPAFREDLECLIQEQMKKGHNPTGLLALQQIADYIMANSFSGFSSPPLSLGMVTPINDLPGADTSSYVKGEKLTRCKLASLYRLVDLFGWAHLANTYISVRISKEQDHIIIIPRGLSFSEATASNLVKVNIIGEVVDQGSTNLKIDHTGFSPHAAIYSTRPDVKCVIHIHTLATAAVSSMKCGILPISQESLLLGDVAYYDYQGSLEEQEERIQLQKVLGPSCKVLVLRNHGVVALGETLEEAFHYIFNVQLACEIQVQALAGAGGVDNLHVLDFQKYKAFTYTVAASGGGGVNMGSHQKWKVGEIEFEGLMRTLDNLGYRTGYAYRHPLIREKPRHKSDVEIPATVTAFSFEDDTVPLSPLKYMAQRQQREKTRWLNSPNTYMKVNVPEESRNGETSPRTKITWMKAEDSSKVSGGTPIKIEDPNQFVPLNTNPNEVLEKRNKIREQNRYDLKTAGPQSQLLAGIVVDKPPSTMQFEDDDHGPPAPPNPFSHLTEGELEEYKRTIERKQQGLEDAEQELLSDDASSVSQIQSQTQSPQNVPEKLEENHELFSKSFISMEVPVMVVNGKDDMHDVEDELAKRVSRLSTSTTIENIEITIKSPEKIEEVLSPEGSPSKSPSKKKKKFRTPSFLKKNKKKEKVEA
UniProt Q9UBE0: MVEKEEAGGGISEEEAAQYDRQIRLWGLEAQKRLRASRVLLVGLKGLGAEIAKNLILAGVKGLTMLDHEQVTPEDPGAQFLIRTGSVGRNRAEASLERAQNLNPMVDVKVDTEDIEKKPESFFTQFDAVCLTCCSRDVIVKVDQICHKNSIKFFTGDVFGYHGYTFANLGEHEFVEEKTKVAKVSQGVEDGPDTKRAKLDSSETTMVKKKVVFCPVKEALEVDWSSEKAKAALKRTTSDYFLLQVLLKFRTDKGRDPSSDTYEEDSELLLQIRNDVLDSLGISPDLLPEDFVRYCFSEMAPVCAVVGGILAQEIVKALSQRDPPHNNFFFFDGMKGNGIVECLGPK
UniProt Q9UEG4: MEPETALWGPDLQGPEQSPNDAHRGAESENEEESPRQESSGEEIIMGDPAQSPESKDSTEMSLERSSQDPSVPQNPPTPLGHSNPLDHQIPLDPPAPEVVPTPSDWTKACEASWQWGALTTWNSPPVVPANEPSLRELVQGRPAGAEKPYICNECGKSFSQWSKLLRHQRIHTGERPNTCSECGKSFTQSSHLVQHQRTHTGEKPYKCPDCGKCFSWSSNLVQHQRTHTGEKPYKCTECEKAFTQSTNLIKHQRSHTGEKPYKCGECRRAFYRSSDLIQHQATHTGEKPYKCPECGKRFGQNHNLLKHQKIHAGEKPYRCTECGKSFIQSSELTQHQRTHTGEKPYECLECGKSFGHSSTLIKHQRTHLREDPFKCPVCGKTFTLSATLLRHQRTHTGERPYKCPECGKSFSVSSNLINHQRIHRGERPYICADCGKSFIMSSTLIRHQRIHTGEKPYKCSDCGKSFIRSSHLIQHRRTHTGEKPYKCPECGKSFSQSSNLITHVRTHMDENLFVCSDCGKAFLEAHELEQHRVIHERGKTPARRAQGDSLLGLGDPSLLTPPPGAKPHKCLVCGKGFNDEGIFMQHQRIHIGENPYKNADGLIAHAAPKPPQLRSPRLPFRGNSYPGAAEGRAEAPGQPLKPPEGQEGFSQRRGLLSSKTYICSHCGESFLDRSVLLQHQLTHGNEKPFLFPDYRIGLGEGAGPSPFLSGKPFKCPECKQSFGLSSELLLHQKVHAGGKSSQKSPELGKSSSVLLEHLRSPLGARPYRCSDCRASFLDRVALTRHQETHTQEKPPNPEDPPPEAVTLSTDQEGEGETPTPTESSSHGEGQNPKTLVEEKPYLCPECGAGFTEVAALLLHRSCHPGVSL
UniProt Q9UBV8: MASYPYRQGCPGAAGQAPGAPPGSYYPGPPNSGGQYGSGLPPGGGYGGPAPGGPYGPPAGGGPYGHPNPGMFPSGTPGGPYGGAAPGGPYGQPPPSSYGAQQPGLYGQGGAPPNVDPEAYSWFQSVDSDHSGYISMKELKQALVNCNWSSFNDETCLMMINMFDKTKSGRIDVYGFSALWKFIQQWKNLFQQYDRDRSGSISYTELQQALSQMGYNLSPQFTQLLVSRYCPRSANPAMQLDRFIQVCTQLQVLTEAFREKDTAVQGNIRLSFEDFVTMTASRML

This is a selection; strong and weak results do not stand in their true shares.

Compound in the test: COC(=O)C#Cc1ccccc1 [methyl 3-phenylpropiolate]
In words: log2 ratio of iodoacetamide-alkyne labeling of the cysteine site, DMSO over compound (competition); higher = stronger covalent engagement of the cysteine by the compound, active = 1 or more. As to conditions: 500 µM; treatment time 1 h; system: HEK293T cell lysate. In a few lines:
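Reporter intensities give each cysteine's log2 competition ratio as the mean of control channels over the mean of compound channels. The samples were HEK293T lysate (2 mg/mL) given vehicle or electrophile (500 µM, 1 h, ambient temperature), then iodoacetamide alkyne (1 h), followed by click coupling to sCIP-TMT reagents, pooling, trypsin digestion overnight at 37 °C, streptavidin enrichment, acid elution, Orbitrap Eclipse LC-MS/MS with FAIMS and FragPipe quantification. Duplicate channels and three replicates were run, and cysteines quantified in only one replicate were discarded.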
In the case of MTPAP C419 (UniProt Q9NVV4), the “log2 ratio of iodoacetamide-alkyne labeling” value (shortened to “log2 ratio”) was inactive: 0.508. As to LARS C522 (UniProt Q9P2J5), the “log2 ratio” value was inactive: -0.28. As to MRPL27 C88 (UniProt Q9P0M9), the “log2 ratio” value is inactive: 0.189. For UniProt Q9UBC1_C304, the “log2 ratio” value is inactive: 0.731. To ASH2L C207 (UniProt Q9UBL3) belongs inactive: 0.0802. On to SPATS2L C367 (UniProt Q9NUQ6), for which the “log2 ratio” value is inactive: 0.00701. Regarding MIOS C321 (UniProt Q9NXC5), the “log2 ratio” value was inactive: 0.126.

For the target SRP68 C586 (UniProt Q9UHB9), the “log2 ratio” value was inactive: 0.198. For ANKFY1 C460 (UniProt Q9P2R3), the “log2 ratio” value was active: 1.44.

With MRPL16 C167 (UniProt Q9NX20), the “log2 ratio” value was inactive: -0.0869. To DAXX C720 (UniProt Q9UER7) belongs active: 1.35; to ITSN2 C1194 (UniProt Q9NZM3), inactive: -0.296. Next, NCDN C22 (UniProt Q9UBB6): inactive: 0.523; UniProt Q9NYU2_C1386: inactive: 0.739. NCDN C158 (UniProt Q9UBB6): the “log2 ratio” value was inactive: -0.218.

As to ATXN10 C356 (UniProt Q9UBB4), the “log2 ratio” value was active: 1.32. Consider UniProt Q9P266_C243, for which the “log2 ratio” value is inactive: 0.578.

Regarding AASS C305 (UniProt Q9UDR5), the “log2 ratio” value was inactive: 0.229.

Turning to ADD3 C73 (UniProt Q9UEY8), the “log2 ratio” value is inactive: 0.00986. Next, UBA2 C185 (UniProt Q9UBT2): inactive: 0.0148; SAE1 C214 (UniProt Q9UBE0): inactive: 0.502. Take FAM120A C919 (UniProt Q9NZB2): the “log2 ratio” value is inactive: 0.985. For ZNRD1 C78 (UniProt Q9P1U0), the “log2 ratio” value was inactive: 0.389.

Turning to UniProt Q9P2P1_C1222, the “log2 ratio” value was inactive: 0.312.

Take ZNF629 C110 (UniProt Q9UEG4): the “log2 ratio” value is inactive: 0.632. Turning to UniProt Q9P032_C87, the “log2 ratio” value is inactive: 0.341.

Regarding TES C416 (UniProt Q9UGI8), the “log2 ratio” value is inactive: 0.0269. To PEF1 C230 (UniProt Q9UBV8) belongs inactive: 0.166; to EIF3K C85 (UniProt Q9UBQ5), inactive: 0.258. To UniProt Q9UBD5_C363 belongs inactive: 0.31; to MKRN1 C179 (UniProt Q9UHC7), inactive: 0.373.

For COPG2 C446 (UniProt Q9UBF2), the “log2 ratio” value was inactive: 0.463.

With MED17 C241 (UniProt Q9NVC6), the “log2 ratio” value was inactive: 0.182. SRP68 C525 (UniProt Q9UHB9): the “log2 ratio” value is inactive: 0.497. For FANCI C1085 (UniProt Q9NVI1), the “log2 ratio” value is inactive: 0.251. As for CHORDC1 C211 (UniProt Q9UHD1), the “log2 ratio” value is inactive: 0.207. KCTD5 C28 (UniProt Q9NXV2): the “log2 ratio” value was inactive: 0.129.
